These are yes or no findings as the source states them, for the method shown. Some results given as binding are weak or reduced against the parent protein; the word gives no strength.

The experiment addresses T1, PHOSPHATE-INDUCED 1 (Arabidopsis thaliana) (UniProt Q9C6E4).
T1 sequence: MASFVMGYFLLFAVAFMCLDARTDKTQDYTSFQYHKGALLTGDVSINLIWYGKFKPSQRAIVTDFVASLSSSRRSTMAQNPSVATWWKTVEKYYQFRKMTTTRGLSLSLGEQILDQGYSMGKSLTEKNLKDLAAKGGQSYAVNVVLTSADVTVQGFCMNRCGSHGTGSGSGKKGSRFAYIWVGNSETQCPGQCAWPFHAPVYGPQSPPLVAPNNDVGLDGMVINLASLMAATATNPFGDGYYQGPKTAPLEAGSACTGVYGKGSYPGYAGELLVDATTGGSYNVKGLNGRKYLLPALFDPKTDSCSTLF
Put plainly: two-hybrid.

B1: CESA2 (enzyme, UniProt O48947 1-1084)
chain: MNTGGRLIAGSHNRNEFVLINADESARIRSVQELSGQTCQICGDEIELTVSSELFVACNECAFPVCRPCYEYERREGNQACPQCKTRYKRIKGSPRVDGDDEEEEDIDDLEYEFDHGMDPEHAAEAALSSRLNTGRGGLDSAPPGSQIPLLTYCDEDADMYSDRHALIVPPSTGYGNRVYPAPFTDSSAPPQARSMVPQKDIAEYGYGSVAWKDRMEVWKRRQGEKLQVIKHEGGNNGRGSNDDDELDDPDMPMMDEGRQPLSRKLPIRSSRINPYRMLILCRLAILGLFFHYRILHPVNDAYGLWLTSVICEIWFAVSWILDQFPKWYPIERETYLDRLSLRYEKEGKPSGLAPVDVFVSTVDPLKEPPLITANTVLSILAVDYPVDKVACYVSDDGAAMLTFEALSDTAEFARKWVPFCKKFNIEPRAPEWYFSQKMDYLKNKVHPAFVRERRAMKRDYEEFKVKINALVATAQKVPEEGWTMQDGTPWPGNNVRDHPGMIQVFLGHSGVRDTDGNELPRLVYVSREKRPGFDHHKKAGAMNSLIRVSAVLSNAPYLLNVDCDHYINNSKAIRESMCFMMDPQSGKKVCYVQFPQRFDGIDRHDRYSNRNVVFFDINMKGLDGIQGPIYVGTGCVFRRQALYGFDAPKKKKPPGKTCNCWPKWCCLCCGLRKKSKTKAKDKKTNTKETSKQIHALENVDEGVIVPVSNVEKRSEATQLKLEKKFGQSPVFVASAVLQNGGVPRNASPACLLREAIQVISCGYEDKTEWGKEIGWIYGSVTEDILTGFKMHCHGWRSVYCMPKRAAFKGSAPINLSDRLHQVLRWALGSVEIFLSRHCPIWYGYGGGLKWLERFSYINSVVYPWTSLPLIVYCSLPAVCLLTGKFIVPEISNYAGILFMLMFISIAVTGILEMQWGGVGIDDWWRNEQFWVIGGASSHLFALFQGLLKVLAGVNTNFTVTSKAADDGAFSELYIFKWTTLLIPPTTLLIINIIGVIVGVSDAISNGYDSWGPLFGRLFFALWVIVHLYPFLKGMLGKQDKMPTIIVVWSILLASILTLLWVRVNPFVAKGGPVLEICGLNCGN
Turning to B1, the binding entry is on record as “binds”.

B2: CESA4 (enzyme, UniProt Q84JA6 1-1049)
chain: MEPNTMASFDDEHRHSSFSAKICKVCGDEVKDDDNGQTFVACHVCVYPVCKPCYEYERSNGNKCCPQCNTLYKRHKGSPKIAGDEENNGPDDSDDELNIKYRQDGSSIHQNFAYGSENGDYNSKQQWRPNGRAFSSTGSVLGKDFEAERDGYTDAEWKERVDKWKARQEKRGLVTKGEQTNEDKEDDEEEYLDAEARQPLWRKVPISSSKISPYRIVIVLRLVILVFFFRFRILTPAKDAYPLWLISVICEIWFALSWILDQFPKWFPINRETYLDRLSMRFERDGEKNKLAPVDVFVSTVDPLKEPPIITANTILSILAVDYPVNKVSCYVSDDGASMLLFDTLSETSEFARRWVPFCKKYNVEPRAPEFYFSEKIDYLKDKVQTTFVKDRRAMKREYEEFKVRINALVAKAQKKPEEGWVMQDGTPWPGNNTRDHPGMIQVYLGKEGAFDIDGNELPRLVYVSREKRPGYAHHKKAGAMNAMVRVSAVLTNAPFMLNLDCDHYINNSKAIRESMCFLMDPQLGKKLCYVQFPQRFDGIDLNDRYANRNIVFFDINMRGLDGIQGPVYVGTGCVFNRPALYGYEPPVSEKRKKMTCDCWPSWICCCCGGGNRNHKSDSSKKKSGIKSLFSKLKKKTKKKSDDKTMSSYSRKRSSTEAIFDLEDIEEGLEGYDELEKSSLMSQKNFEKRFGMSPVFIASTLMENGGLPEATNTSSLIKEAIHVISCGYEEKTEWGKEIGWIYGSVTEDILTGFRMHCRGWKSVYCMPKRPAFKGSAPINLSDRLHQVLRWALGSVEIFFSRHCPLWYAWGGKLKILERLAYINTIVYPFTSIPLLAYCTIPAVCLLTGKFIIPTINNFASIWFLALFLSIIATAILELRWSGVSINDLWRNEQFWVIGGVSAHLFAVFQGLLKVLFGVDTNFTVTSKGASDEADEFGDLYLFKWTTLLIPPTTLIILNMVGVVAGVSDAINNGYGSWGPLFGKLFFAFWVIVHLYPFLKGLMGRQNRTPTIVVLWSILLASIFSLVWVRIDPFLPKQTGPLLKQCGVDC
With B2, the binding entry is listed as “binds”.

B3: CESA1 (enzyme, UniProt O48946 1-1081)
chain: MEASAGLVAGSYRRNELVRIRHESDGGTKPLKNMNGQICQICGDDVGLAETGDVFVACNECAFPVCRPCYEYERKDGTQCCPQCKTRFRRHRGSPRVEGDEDEDDVDDIENEFNYAQGANKARHQRHGEEFSSSSRHESQPIPLLTHGHTVSGEIRTPDTQSVRTTSGPLGPSDRNAISSPYIDPRQPVPVRIVDPSKDLNSYGLGNVDWKERVEGWKLKQEKNMLQMTGKYHEGKGGEIEGTGSNGEELQMADDTRLPMSRVVPIPSSRLTPYRVVIILRLIILCFFLQYRTTHPVKNAYPLWLTSVICEIWFAFSWLLDQFPKWYPINRETYLDRLAIRYDRDGEPSQLVPVDVFVSTVDPLKEPPLVTANTVLSILSVDYPVDKVACYVSDDGSAMLTFESLSETAEFAKKWVPFCKKFNIEPRAPEFYFAQKIDYLKDKIQPSFVKERRAMKREYEEFKVRINALVAKAQKIPEEGWTMQDGTPWPGNNTRDHPGMIQVFLGHSGGLDTDGNELPRLIYVSREKRPGFQHHKKAGAMNALIRVSAVLTNGAYLLNVDCDHYFNNSKAIKEAMCFMMDPAIGKKCCYVQFPQRFDGIDLHDRYANRNIVFFDINMKGLDGIQGPVYVGTGCCFNRQALYGYDPVLTEEDLEPNIIVKSCCGSRKKGKSSKKYNYEKRRGINRSDSNAPLFNMEDIDEGFEGYDDERSILMSQRSVEKRFGQSPVFIAATFMEQGGIPPTTNPATLLKEAIHVISCGYEDKTEWGKEIGWIYGSVTEDILTGFKMHARGWISIYCNPPRPAFKGSAPINLSDRLNQVLRWALGSIEILLSRHCPIWYGYHGRLRLLERIAYINTIVYPITSIPLIAYCILPAFCLITDRFIIPEISNYASIWFILLFISIAVTGILELRWSGVSIEDWWRNEQFWVIGGTSAHLFAVFQGLLKVLAGIDTNFTVTSKATDEDGDFAELYIFKWTALLIPPTTVLLVNLIGIVAGVSYAVNSGYQSWGPLFGKLFFALWVIAHLYPFLKGLLGRQNRTPTIVIVWSVLLASIFSLLWVRINPFVDANPNANNFNGKGGVF
As to B3, the binding entry is reported as “binds”.

B4: CESA3 (enzyme, UniProt Q941L0 1-1065)
chain: MESEGETAGKPMKNIVPQTCQICSDNVGKTVDGDRFVACDICSFPVCRPCYEYERKDGNQSCPQCKTRYKRLKGSPAIPGDKDEDGLADEGTVEFNYPQKEKISERMLGWHLTRGKGEEMGEPQYDKEVSHNHLPRLTSRQDTSGEFSAASPERLSVSSTIAGGKRLPYSSDVNQSPNRRIVDPVGLGNVAWKERVDGWKMKQEKNTGPVSTQAASERGGVDIDASTDILADEALLNDEARQPLSRKVSIPSSRINPYRMVIMLRLVILCLFLHYRITNPVPNAFALWLVSVICEIWFALSWILDQFPKWFPVNRETYLDRLALRYDREGEPSQLAAVDIFVSTVDPLKEPPLVTANTVLSILAVDYPVDKVSCYVSDDGAAMLSFESLAETSEFARKWVPFCKKYSIEPRAPEWYFAAKIDYLKDKVQTSFVKDRRAMKREYEEFKIRINALVSKALKCPEEGWVMQDGTPWPGNNTRDHPGMIQVFLGQNGGLDAEGNELPRLVYVSREKRPGFQHHKKAGAMNALVRVSAVLTNGPFILNLDCDHYINNSKALREAMCFLMDPNLGKQVCYVQFPQRFDGIDKNDRYANRNTVFFDINLRGLDGIQGPVYVGTGCVFNRTALYGYEPPIKVKHKKPSLLSKLCGGSRKKNSKAKKESDKKKSGRHTDSTVPVFNLDDIEEGVEGAGFDDEKALLMSQMSLEKRFGQSAVFVASTLMENGGVPPSATPENLLKEAIHVISCGYEDKSDWGMEIGWIYGSVTEDILTGFKMHARGWRSIYCMPKLPAFKGSAPINLSDRLNQVLRWALGSVEILFSRHCPIWYGYNGRLKFLERFAYVNTTIYPITSIPLLMYCTLPAVCLFTNQFIIPQISNIASIWFLSLFLSIFATGILEMRWSGVGIDEWWRNEQFWVIGGVSAHLFAVFQGILKVLAGIDTNFTVTSKASDEDGDFAELYLFKWTTLLIPPTTLLIVNLVGVVAGVSYAINSGYQSWGPLFGKLFFAFWVIVHLYPFLKGLMGRQNRTPTIVVVWSVLLASIFSLLWVRIDPFTSRVTGPDILECGINC
With B4, the binding entry is reported as “binds”.

The record behind these values is doi:10.1101/2024.01.24.577082.
